Test results published in PMC6488673, “Crystal structure of the Lin28-interacting module of human terminal uridylyltransferase that regulates let-7 expression”.
For some of these results: No signal at the amounts used counts as a negative. For some of these results: Weaker means in comparison with the reference protein, sequence or condition of that experiment. For some of these results: Construct, isoform or probe ends are uncertain for at least one entry. For some of these results: At least one verdict was read from the data and is not stated in words by the source.

How the values were obtained:
hLin28A_ZK + hTUT4_mini = test: Tb(III) footprinting; conditions: 10 mM Tb(III), hLin28A_ZK- and hTUT4_mini-dependent protection; recombinant protein; label: 5'-32P
[1] = tested on: hTUT4_N R669A/R670A + hLin28A R669A,R670A,del579-610; test: EMSA; conditions: ternary complex reduced; EMSA: 50 mM Tris-HCl pH 8.5, 100 mM NaCl, 10 mM MgCl2, 10 mM beta-mercaptoethanol, 10% glycerol, 10 min, room temperature; Tb(III) footprinting: same salts, 5% glycerol; recombinant protein; label: none in EMSA (ethidium bromide stain)
[2] = tested on: hTUT4_N K321A/K324A + hLin28A K321A,K324A,del579-610; test: EMSA; conditions: ternary complex abolished (outcome refers to TUT4 joining Lin28A:RNA); EMSA: 50 mM Tris-HCl pH 8.5, 100 mM NaCl, 10 mM MgCl2, 10 mM beta-mercaptoethanol, 10% glycerol, 10 min, room temperature; Tb(III) footprinting: same salts, 5% glycerol; recombinant protein; label: none in EMSA (ethidium bromide stain)
[3] = tested on: hTUT4_N K329A/K330A + hLin28A K329A,K330A,del579-610; test: EMSA; conditions: ternary complex abolished (outcome refers to TUT4 joining Lin28A:RNA); EMSA: 50 mM Tris-HCl pH 8.5, 100 mM NaCl, 10 mM MgCl2, 10 mM beta-mercaptoethanol, 10% glycerol, 10 min, room temperature; Tb(III) footprinting: same salts, 5% glycerol; recombinant protein; label: none in EMSA (ethidium bromide stain)
[4] = tested on: hTUT4_N H450A/K452A + hLin28A H450A,K452A,del579-610; test: EMSA; conditions: ternary complex reduced; EMSA: 50 mM Tris-HCl pH 8.5, 100 mM NaCl, 10 mM MgCl2, 10 mM beta-mercaptoethanol, 10% glycerol, 10 min, room temperature; Tb(III) footprinting: same salts, 5% glycerol; recombinant protein; label: none in EMSA (ethidium bromide stain)
[5] = tested on: hTUT4_N C306A/C309A + hLin28A C306A,C309A,del579-610; test: EMSA; conditions: ternary complex abolished (outcome refers to TUT4 joining Lin28A:RNA); EMSA: 50 mM Tris-HCl pH 8.5, 100 mM NaCl, 10 mM MgCl2, 10 mM beta-mercaptoethanol, 10% glycerol, 10 min, room temperature; Tb(III) footprinting: same salts, 5% glycerol; recombinant protein; label: none in EMSA (ethidium bromide stain)
[6] = tested on: hTUT4_N K326A/R327A + hLin28A K326A,R327A,del579-610; test: EMSA; conditions: ternary complex abolished (outcome refers to TUT4 joining Lin28A:RNA); EMSA: 50 mM Tris-HCl pH 8.5, 100 mM NaCl, 10 mM MgCl2, 10 mM beta-mercaptoethanol, 10% glycerol, 10 min, room temperature; Tb(III) footprinting: same salts, 5% glycerol; recombinant protein; label: none in EMSA (ethidium bromide stain)

Sequence	binding result (hLin28A_ZK + hTUT4_mini)	binding result [1]	binding result [2]	binding result [3]	binding result [4]	binding result [5]	binding result [6]
UGAGGUAGUAGGUUGUAUAGUUUUAGGGUCACACCCACCACUGGGAGAUAACUAUACAAUCUACUGUCUUUC [5'-[32P] pre-let-7a-1]	binds	–	–	–	–	–	–
UGAGGUAGUAGGUUGUAUAGUUUUAGGGUCACACCCACCACUGGGAGAUAACUAUACAAUCUACUGUCUUUC [pre-let-7a-1]	–	binds more weakly	no binding	no binding	binds more weakly	no binding	no binding
